Patent US20210261668A1
Results are given in words; binding and its absence hold for the method and conditions named. Some entries that bind do so weakly or less than the wild type.

What was measured:
[1] = target: EGFR expressed on NCI-H2172 human lung cancer cells (EGFR L858R T790M) (human) (UniProt P00533); assay: flow cytometry on cells, anti-human IgG secondary
[2] = target: EGFR expressed on HCC827 human lung cancer cells and on NCI-H747 human colon cancer cells (human) (UniProt P00533); assay: flow cytometry on cells, anti-human IgG secondary

B1: AdiCLC2 (antibody, V domains shown)
VH: QVQLQESGPGLVKPSETLSLTCTVSGGSVSSGSYYWSWIRQPPGKGLEWIGYIYYSGSTNYNPSLKSRVTISVDTSKNQFSLKLSSVTAADTAVYYCARTNLYSTPFDIWGQGTMVTVSS
VL: DIQLTQSPSSVSASVGDRVTITCRASQDISSWLAWYQQKPGKAPKLLIYAASSLQSGVPSRFSGSGSGTDFTLTISSLQPEDFATYYCQQEHDFPWTFGGGTKVEIK
[1]
  binding: binds
[2]
  binding: binds
